Data from ChEMBL document CHEMBL4130556, “Selective Estrogen Receptor Degraders (SERDs): A Promising Treatment to Overcome Resistance to Endocrine Therapy in ERα-Positive Breast Cancer” (ACS Med Chem Lett, 2017).

System: MCF7
Experiment: cells
Settings: Homo sapiens

Q: `CN1CC=C(C2=C(c3ccc(O[C@H]4CCN(CCCF)C4)cc3)c3ccc(O)cc3CCC2)CC1` was tested. Which IC50 did it give?
A: 48 nM
